PubChem BioAssay AID1259261, Sanger Institute, 2017
Screen: 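Kinase knock-downs that kill colorectal cancer cells or boost targeted drugs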 (primary screen). Cell system: HCC2998 human colorectal cancer cells. Knock-down reagent: siRNA pool against human genes. Conditions: anchor drugs BYL719 1 µM, cetuximab 5 µg/ml or trametinib 10 nM, each compared with DMSO vehicle. Measured: 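Cell viability relative to non-targeting siRNA, averaged over replicates, with robust z-score for siRNA alone and synergy scores with each anchor drug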. Direction: viability z-score, knock-down alone: higher = more viable cells than controls. Call rule: 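a knock-down is called essential if its robust z-score without drug is under -3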. Meaning of the calls: active = essential; inactive = no change.
Here is a random part of 794 deposited reagents. In the full data, 10 (1.3%) were called active. 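Calls reflect knock-down alone without drug; synergy scores with BYL719, cetuximab or trametinib do not affect calls.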 Not all columns of the deposit are shown. No sequences are given here. Not stated in the record: the amount of reagent, the time to read-out.

| gene symbol | viability z-score, knock-down alone | Outcome |
| --- | --- | --- |
| TAF1L (TATA-box binding protein associated factor 1 like) | -1.82 | inactive |
| IRAK2 (interleukin 1 receptor associated kinase 2) | 1.21 | inactive |
| AURKC (aurora kinase C) | 0.76 | inactive |
| FGFRL1 (fibroblast growth factor receptor like 1) | -0.583 | inactive |
| SRP72 (signal recognition particle 72) | 0.00285 | inactive |
| KCNH8 (potassium voltage-gated channel subfamily H member 8) | 0.0732 | inactive |
| PLK2 (polo like kinase 2) | 0.911 | inactive |
| CKS1B (CDC28 protein kinase regulatory subunit 1B) | 0.638 | inactive |
| SBK1 (SH3 domain binding kinase 1) | 0.181 | inactive |
| BMPR2 (bone morphogenetic protein receptor type 2) | -0.107 | inactive |
| INSRR (insulin receptor related receptor) | -1.92 | inactive |
| BUB1 (BUB1 mitotic checkpoint serine/threonine kinase) | 0.586 | inactive |
| ATM (ATM serine/threonine kinase) | -0.901 | inactive |
| CLSPN (claspin) | -1.42 | inactive |
| GAK (cyclin G associated kinase) | 0.566 | inactive |
| CDK6 (cyclin dependent kinase 6) | -0.938 | inactive |
| TTBK2 (tau tubulin kinase 2) | -1.09 | inactive |
| PRPS2 (phosphoribosyl pyrophosphate synthetase 2) | -0.138 | inactive |
| CHD9 (chromodomain helicase DNA binding protein 9) | -0.327 | inactive |
| MAST1 (microtubule associated serine/threonine kinase 1) | -0.893 | inactive |
| NME3 (NME/NM23 nucleoside diphosphate kinase 3) | -1.35 | inactive |
| SIK2 (salt inducible kinase 2) | 0.91 | inactive |
| RPS6KB1 (ribosomal protein S6 kinase B1) | 0.696 | inactive |
| NME4 (NME/NM23 nucleoside diphosphate kinase 4) | 0.174 | inactive |
| BMAL1 (basic helix-loop-helix ARNT like 1) | -1.36 | inactive |
| PRKAR1B (protein kinase cAMP-dependent type I regulatory subunit beta) | -0.51 | inactive |
| PHKA2 (phosphorylase kinase regulatory subunit alpha 2) | 0.61 | inactive |
| SPHK1 (sphingosine kinase 1) | -0.512 | inactive |
| VRK1 (VRK serine/threonine kinase 1) | -0.0112 | inactive |
| ERBB2 (erb-b2 receptor tyrosine kinase 2) | 0.966 | inactive |
| CDK19 (cyclin dependent kinase 19) | 0.73 | inactive |
| NR2F2 (nuclear receptor subfamily 2 group F member 2) | 0.00318 | inactive |
| TBCK (TBC1 domain containing kinase) | 1.21 | inactive |
| FGFR2 (fibroblast growth factor receptor 2) | -0.914 | inactive |
| CUL1 (cullin 1) | 0.101 | inactive |
| TSSK4 (testis specific serine kinase 4) | -0.914 | inactive |
| HK1 (hexokinase 1) | 1.21 | inactive |
| BUB1B (BUB1 mitotic checkpoint serine/threonine kinase B) | -1.7 | inactive |
| MED24 (mediator complex subunit 24) | 0.534 | inactive |
| CSNK1G1 (casein kinase 1 gamma 1) | -1.87 | inactive |
| ADGRL2 (adhesion G protein-coupled receptor L2) | -2.07 | inactive |
| ATRX (ATRX chromatin remodeler) | 1.07 | inactive |
| PIK3C2A | -1.57 | inactive |
| PSKH2 (protein serine kinase H2) | 0.0191 | inactive |
| CAMK2B (calcium/calmodulin dependent protein kinase II beta) | 0.503 | inactive |
| CHD4 (chromodomain helicase DNA binding protein 4) | -2.73 | inactive |
| GRK7 (G protein-coupled receptor kinase 7) | -0.128 | inactive |
| XYLB (xylulokinase) | -0.742 | inactive |
| ARAF (A-Raf proto-oncogene, serine/threonine kinase) | 1.21 | inactive |
| DAPK2 (death associated protein kinase 2) | 0.97 | inactive |

A run of entries of the results above, for reference:
| gene symbol | viability z-score, knock-down alone | Outcome |
| --- | --- | --- |
| SIK2 (salt inducible kinase 2) | 0.91 | inactive |
| RPS6KB1 (ribosomal protein S6 kinase B1) | 0.696 | inactive |
| NME4 (NME/NM23 nucleoside diphosphate kinase 4) | 0.174 | inactive |
| BMAL1 (basic helix-loop-helix ARNT like 1) | -1.36 | inactive |
| PRKAR1B (protein kinase cAMP-dependent type I regulatory subunit beta) | -0.51 | inactive |
